For this assay, the target named is T1, myc-tagged UNC45A WT (human) (UniProt Q9H3U1).
T1 sequence: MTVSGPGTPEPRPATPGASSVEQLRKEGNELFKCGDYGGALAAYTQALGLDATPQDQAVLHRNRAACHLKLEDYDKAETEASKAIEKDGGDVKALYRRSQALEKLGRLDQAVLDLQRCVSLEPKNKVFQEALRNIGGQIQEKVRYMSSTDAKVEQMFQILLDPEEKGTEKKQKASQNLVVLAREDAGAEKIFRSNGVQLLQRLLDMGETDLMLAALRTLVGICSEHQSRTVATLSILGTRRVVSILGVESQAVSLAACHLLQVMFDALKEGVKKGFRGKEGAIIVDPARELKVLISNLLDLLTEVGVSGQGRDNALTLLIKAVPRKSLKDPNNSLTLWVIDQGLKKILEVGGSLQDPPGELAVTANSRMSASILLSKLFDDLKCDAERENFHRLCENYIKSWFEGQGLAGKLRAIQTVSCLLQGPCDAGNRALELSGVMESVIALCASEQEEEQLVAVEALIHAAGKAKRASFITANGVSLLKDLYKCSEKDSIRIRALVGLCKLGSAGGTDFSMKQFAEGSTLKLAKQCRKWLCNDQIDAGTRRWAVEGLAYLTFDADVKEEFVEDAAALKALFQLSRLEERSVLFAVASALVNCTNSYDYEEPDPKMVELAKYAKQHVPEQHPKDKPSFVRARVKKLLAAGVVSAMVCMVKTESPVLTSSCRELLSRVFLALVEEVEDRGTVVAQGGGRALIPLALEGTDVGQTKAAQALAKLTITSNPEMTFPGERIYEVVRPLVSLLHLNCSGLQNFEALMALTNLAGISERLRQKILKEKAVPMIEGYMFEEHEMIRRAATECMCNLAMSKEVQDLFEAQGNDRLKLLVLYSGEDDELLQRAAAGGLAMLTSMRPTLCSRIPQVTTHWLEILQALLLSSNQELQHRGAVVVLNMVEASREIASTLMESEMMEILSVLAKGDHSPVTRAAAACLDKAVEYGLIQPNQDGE
As to the kind of experiment: co-IP; myc immunoprecipitates of WT-UNC45A from Caco-2 lysate (μMACS c-myc Isolation Kit), Western blot for myosin VB and HSP90. In general terms: Immunoblotting shows a protein as a band on a membrane.

By UniProt entry, the sequences of proteins in these tests, tags left out.
UniProt Q9ULV0: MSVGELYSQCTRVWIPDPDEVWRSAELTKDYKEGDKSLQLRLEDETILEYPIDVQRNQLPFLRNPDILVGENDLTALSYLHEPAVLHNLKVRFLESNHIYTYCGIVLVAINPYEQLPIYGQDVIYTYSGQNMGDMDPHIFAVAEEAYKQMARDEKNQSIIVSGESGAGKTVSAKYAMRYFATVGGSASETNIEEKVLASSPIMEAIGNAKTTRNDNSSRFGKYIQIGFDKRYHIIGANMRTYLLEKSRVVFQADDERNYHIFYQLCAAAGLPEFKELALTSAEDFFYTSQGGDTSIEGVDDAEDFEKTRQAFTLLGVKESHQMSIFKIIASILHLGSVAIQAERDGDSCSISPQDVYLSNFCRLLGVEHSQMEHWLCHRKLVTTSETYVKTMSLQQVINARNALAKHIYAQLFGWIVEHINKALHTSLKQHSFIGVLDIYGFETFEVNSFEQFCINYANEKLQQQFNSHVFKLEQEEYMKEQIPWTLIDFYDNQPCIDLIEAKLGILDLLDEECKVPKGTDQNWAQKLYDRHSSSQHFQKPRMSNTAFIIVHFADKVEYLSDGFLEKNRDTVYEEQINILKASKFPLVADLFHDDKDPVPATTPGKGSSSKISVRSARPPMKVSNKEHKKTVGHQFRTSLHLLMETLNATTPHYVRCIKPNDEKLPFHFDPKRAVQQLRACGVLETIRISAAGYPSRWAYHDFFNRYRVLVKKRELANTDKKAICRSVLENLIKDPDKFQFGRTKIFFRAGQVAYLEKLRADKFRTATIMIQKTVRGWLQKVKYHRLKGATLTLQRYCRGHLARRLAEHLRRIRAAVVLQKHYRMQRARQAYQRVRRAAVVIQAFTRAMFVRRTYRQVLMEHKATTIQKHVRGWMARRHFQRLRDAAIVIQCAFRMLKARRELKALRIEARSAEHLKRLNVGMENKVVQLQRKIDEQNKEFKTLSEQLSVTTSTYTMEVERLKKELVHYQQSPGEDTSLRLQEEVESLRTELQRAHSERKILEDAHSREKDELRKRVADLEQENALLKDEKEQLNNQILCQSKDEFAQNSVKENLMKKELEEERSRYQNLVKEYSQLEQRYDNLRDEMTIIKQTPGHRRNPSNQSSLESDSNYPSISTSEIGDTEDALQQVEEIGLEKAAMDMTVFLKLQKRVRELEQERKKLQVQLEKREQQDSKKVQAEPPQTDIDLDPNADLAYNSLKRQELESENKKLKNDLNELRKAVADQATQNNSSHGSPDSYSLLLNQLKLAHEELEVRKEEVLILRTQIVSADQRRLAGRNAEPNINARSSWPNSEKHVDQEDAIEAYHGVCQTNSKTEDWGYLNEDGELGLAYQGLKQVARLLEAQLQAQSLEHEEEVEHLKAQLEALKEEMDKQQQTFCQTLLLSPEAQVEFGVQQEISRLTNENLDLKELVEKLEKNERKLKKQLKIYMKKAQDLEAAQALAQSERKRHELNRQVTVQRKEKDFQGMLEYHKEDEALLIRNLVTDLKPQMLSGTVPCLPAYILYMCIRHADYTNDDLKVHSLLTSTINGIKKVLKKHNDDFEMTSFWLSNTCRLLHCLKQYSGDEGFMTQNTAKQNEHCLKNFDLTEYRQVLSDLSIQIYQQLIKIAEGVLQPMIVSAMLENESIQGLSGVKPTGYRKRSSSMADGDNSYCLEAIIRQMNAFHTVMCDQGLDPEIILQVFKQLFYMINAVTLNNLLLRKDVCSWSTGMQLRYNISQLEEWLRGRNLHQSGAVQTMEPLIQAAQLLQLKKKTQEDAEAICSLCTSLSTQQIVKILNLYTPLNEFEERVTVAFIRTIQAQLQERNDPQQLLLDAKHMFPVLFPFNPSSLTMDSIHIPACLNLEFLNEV

No constants are given. Whether binding was seen depends on the method and setting. In cells and extracts the contact can be indirect. Some binding calls cover weakened binding; strength is not graded here. Sequences can lack the tags named with a protein.

myosin VB (from UniProt Q9ULV0 1-1848): the binding entry is “binds”.

(Values after article PMC9106349.)
